In patent publication US20110046056A1, “APOA-1 PEPTIDE MIMETICS” (priority 2007, published 2011):
At least one peptide structure holds a part that was inferred or is arguable (an end, a ring closure or a residue). *1 amine or outer side, *2 acyl side, *3 side chain or, on linkers, in order; H or OH if unused. Where a SMILES comes first, the peptide text is derived from it. [ ]: non-standard residue; d: D form. X8 = O=C([C@@H](C/C=C/c1ccccc1)N[*:1])[*:2]; X7 = O=C([C@H](CC=Cc1ccccc1)N[*:1])[*:2]; Ala(5-hexenyl) = C=CCCCCC[C@H](N)C(=O)O

By UniProt entry, the sequences of proteins in these tests, tags left out. Where a name states a change or a piece, a line headed by the entry shows the natural chain unless it says otherwise.
UniProt P41233: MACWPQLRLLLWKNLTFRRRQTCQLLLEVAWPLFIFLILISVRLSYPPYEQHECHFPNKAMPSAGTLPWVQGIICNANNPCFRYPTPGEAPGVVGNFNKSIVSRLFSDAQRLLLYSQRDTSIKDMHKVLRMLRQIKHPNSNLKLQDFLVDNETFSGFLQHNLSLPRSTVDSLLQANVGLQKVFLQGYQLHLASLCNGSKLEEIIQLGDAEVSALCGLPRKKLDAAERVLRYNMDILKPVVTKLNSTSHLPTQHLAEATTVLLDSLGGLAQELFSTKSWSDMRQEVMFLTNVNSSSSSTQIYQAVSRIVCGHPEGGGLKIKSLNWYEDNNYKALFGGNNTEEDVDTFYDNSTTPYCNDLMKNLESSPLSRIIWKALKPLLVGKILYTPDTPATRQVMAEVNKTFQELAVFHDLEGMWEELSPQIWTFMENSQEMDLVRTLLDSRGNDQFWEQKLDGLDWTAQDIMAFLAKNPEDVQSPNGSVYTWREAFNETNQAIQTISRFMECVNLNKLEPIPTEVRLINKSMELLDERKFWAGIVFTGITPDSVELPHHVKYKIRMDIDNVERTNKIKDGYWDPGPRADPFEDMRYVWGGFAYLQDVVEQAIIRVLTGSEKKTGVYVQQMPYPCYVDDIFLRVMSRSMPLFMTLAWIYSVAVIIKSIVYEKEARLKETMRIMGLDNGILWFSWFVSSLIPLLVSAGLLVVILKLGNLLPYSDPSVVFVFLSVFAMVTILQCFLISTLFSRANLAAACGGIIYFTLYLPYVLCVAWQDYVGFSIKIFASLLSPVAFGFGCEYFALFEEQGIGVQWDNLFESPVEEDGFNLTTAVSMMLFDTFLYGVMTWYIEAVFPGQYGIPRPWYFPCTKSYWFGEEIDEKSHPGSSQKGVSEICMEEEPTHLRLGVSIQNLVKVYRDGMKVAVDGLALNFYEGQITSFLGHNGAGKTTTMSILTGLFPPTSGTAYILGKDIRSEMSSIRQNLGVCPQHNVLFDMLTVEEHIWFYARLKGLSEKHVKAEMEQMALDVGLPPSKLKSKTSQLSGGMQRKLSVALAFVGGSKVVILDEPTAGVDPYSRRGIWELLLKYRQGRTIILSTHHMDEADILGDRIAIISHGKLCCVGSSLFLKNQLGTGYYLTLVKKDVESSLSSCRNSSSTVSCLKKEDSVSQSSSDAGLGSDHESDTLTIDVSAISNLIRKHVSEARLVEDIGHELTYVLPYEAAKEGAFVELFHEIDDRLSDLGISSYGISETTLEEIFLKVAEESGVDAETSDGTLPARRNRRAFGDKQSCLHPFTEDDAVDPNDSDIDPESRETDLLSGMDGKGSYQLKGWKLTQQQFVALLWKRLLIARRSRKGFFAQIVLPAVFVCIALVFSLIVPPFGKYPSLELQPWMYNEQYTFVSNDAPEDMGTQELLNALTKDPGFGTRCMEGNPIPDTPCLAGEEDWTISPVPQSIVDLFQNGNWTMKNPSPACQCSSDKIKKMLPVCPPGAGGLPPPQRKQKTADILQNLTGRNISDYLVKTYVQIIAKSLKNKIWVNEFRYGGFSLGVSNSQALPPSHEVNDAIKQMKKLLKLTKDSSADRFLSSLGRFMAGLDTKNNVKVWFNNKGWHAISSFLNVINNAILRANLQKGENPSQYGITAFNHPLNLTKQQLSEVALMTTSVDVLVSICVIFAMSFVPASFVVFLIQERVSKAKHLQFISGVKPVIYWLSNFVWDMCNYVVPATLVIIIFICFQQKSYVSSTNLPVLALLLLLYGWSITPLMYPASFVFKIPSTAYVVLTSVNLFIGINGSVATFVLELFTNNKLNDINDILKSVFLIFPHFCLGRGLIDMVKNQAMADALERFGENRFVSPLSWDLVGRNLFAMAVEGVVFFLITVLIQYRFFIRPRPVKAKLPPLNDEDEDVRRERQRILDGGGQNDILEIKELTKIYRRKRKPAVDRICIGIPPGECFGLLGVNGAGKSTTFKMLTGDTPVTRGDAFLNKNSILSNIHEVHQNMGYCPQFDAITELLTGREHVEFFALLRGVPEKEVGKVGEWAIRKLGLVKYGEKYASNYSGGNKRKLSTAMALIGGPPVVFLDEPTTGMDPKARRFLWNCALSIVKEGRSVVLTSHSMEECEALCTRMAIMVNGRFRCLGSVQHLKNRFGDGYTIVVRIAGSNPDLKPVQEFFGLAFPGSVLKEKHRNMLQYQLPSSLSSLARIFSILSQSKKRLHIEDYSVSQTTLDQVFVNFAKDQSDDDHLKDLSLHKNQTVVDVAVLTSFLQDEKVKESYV

Experiments:
[1] = molecular target: T1, ABCA1 cholesterol transporter protein (Mus musculus, UniProt P41233); assay: ABCA1-dependent cholesterol efflux from RAW mouse macrophage cells (in vitro RCT assay); type: cell-based
T1 construct: endogenous in cells
Text: Peptides of the present invention were designed based on amphipathic properties and their abilities to solubilize phospholipids and promote cholesterol efflux. The most direct functional measurement of efficacy for the ApoA-1 peptide mimetic is its capacity to improve the efflux of cholesterol from the cell. The RAW and J774 cell lines are reliable mouse macrophage cell lines frequently used in the art for this purpose. […] The RAW cell line is preferred and recited in the description below.
In the present assay, the RAW cells are plated at 1.5×10^5 cells/200 μl/well/48-well plate in DMEM complete medium (with 10% FBS from INVITROGEN and 1% penicillin-streptomycin-glutamine from GIBCO) and ^3H-cholesterol at 5 μCi/ml. […]
After 24 hours incubation in the various conditions, the medium is harvested from each well and 50 μl aliquots are counted. […] After thawing, the lysates are mixed well and 50 μl aliquots are counted.
The percent efflux of each peptide in each medium condition (±cAMP) is calculated by dividing the total counts in the medium by the sum of the total counts in the medium and lysate. […] EC50 values are determined using PRISM software (Table 2).

[2] = Lipid (liposome) solubilization, turbidimetric method; type: biochemical
Method: As noted above, the other important parameter was phospholipid solubilization. A turbidimetric method is used to determine the solubilization capacity of peptides of the present invention. First, a three-fold serial titration of the peptide is prepared in a polypropylene v-shaped 96-well plate. The eight-point titration is done in phosphate-buffered saline (PBS, pH 7.5) or DMSO from a starting concentration that allows for addition to an optically-clear bottomed assay plate in <100 μl aliquots to yield a starting concentration of 500 μM in 200 μl final well volume. PBS is then added to each well to bring the total volume to 100 μl. Any bubbles in the wells must be dispersed to avoid erroneous results. Next, from a turbid but homogeneous emulsion of dimyristoyl phosphatidylcholine at 0.5 mg/ml in PBS, 100 μl is added to each well in the assay plate, the plate is inserted into the NEPHELOSTAR (BMG LABTECH INSTRUMENTS), and readings are taken immediately and every 15 minutes over 2 hours.
A true 0-point value is calculated by averaging the readings of the wells with phospholipid but no peptide. For each peptide concentration, a percent decrease in turbidity is calculated by subtracting the 0-point value from the corresponding 30 and 120 minute readings and dividing by that 0-point value. Finally the EC50 values for both time points are determined using PRISM software (Table 2).

| Structure (SMILES) | EC50 [1] | IC50 [2] |
| --- | --- | --- |
| CC(=O)N1CCC[C@H]1C(=O)N[C@H](C(=O)N[C@@H](CC(C)C)C(=O)N[C@@H](CC(=O)O)C(=O)N[C@@H](CCC(=O)O)C(=O)N[C@@H](Cc1ccccc1)C(=O)N[C@@H](CCCNC(=N)N)C(=O)N[C@@H](CCC(=O)O)C(=O)N[C@@H](CCCCN)C(=O)N[C@@H](CC(C)C)C(=O)N[C@@H](CC(N)=O)C(=O)N[C@@H](CCC(=O)O)C(=O)N[C@H](C/C=C/c1ccccc1)C(=O)N[C@@H](CC(C)C)C(=O)N[C@@H](CCC(=O)O)C(=O)N[C@@H](C)C(=O)N[C@@H](CC(C)C)C(=O)N[C@@H](CCCCN)C(=O)N[C@@H](CCC(N)=O)C(=O)N[C@@H](CCCCN)C(=O)N[C@@H](CC(C)C)C(=O)N[C@@H](CCCCN)C(N)=O)C(C)C [SEQ ID NO 39, PVLDEFREKLNE-(R)STYRA-LEALKQKLK] (Ac-PVLDEFREKLNE[X8]LEALKQKLK-NH2; C-terminus assumed) | 22 µM | – |
| C=CCCCCC[C@H](NC(=O)[C@H](CCC(=O)O)NC(=O)[C@H](CC(N)=O)NC(=O)[C@H](CC(C)C)NC(=O)[C@H](CCCCN)NC(=O)[C@H](CCC(=O)O)NC(=O)[C@H](CCCNC(=N)N)NC(=O)[C@H](Cc1ccccc1)NC(=O)[C@H](CCC(=O)O)NC(=O)[C@H](CC(=O)O)NC(=O)[C@H](CC(C)C)NC(=O)[C@@H](NC(=O)[C@@H]1CCCN1C(C)=O)C(C)C)C(=O)N[C@@H](CC(C)C)C(=O)N[C@@H](CCC(=O)O)C(=O)N[C@@H](C)C(=O)N[C@@H](CC(C)C)C(=O)N[C@@H](CCCCN)C(=O)N[C@@H](CCC(N)=O)C(=O)N[C@@H](CCCCN)C(=O)N[C@@H](CC(C)C)C(=O)N[C@@H](CCCCN)C(N)=O [SEQ ID NO 29, PVLDEFREKLNES7HLEALKQKLK] (Ac-PVLDEFREKLNE[Ala(5-hexenyl)]LEALKQKLK-NH2) | – | 11 µM |
| C=CCCCCC[C@H](NC(=O)[C@H](CCC(=O)O)NC(=O)[C@H](CC(N)=O)NC(=O)[C@H](CC(C)C)NC(=O)[C@H](CCCCN)NC(=O)[C@H](CCC(=O)O)NC(=O)[C@H](CCCNC(=N)N)NC(=O)[C@H](CC=Cc1ccccc1)NC(=O)[C@H](CCC(=O)O)NC(=O)[C@H](CC(=O)O)NC(=O)[C@H](CC(C)C)NC(=O)[C@@H](NC(=O)[C@@H]1CCCN1C(C)=O)C(C)C)C(=O)N[C@@H](CC(C)C)C(=O)N[C@@H](CCC(=O)O)C(=O)N[C@@H](C)C(=O)N[C@@H](CC(C)C)C(=O)N[C@@H](CCCCN)C(=O)N[C@@H](CCC(N)=O)C(=O)N[C@@H](CCCCN)C(=O)N[C@@H](CC(C)C)C(=O)N[C@@H](CCCCN)C(N)=O [SEQ ID NO 48, PVLDE-(S)STYRA-REKLNES7HLEALKQKLK] (Ac-PVLDE[X7]REKLNE[Ala(5-hexenyl)]LEALKQKLK-NH2; C-terminus assumed) | 0.2 µM | – |
